Primary screen of a compound library

Protein sequences, listed by entry. Tags and fused reporters are not part of them. Residues count along the entry.
UniProt A4I591, 1-473: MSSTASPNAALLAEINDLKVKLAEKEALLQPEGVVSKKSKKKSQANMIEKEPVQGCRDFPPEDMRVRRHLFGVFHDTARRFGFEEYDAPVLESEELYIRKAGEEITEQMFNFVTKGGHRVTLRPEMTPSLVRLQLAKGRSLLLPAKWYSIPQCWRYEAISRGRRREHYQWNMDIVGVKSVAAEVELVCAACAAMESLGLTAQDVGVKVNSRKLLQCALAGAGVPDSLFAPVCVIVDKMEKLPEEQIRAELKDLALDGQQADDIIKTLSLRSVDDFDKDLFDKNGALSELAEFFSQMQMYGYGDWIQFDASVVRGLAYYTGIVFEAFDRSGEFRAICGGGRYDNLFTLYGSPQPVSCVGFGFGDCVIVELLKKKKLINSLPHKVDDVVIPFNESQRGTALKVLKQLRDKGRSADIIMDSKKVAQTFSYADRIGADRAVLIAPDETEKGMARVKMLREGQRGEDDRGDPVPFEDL
UniProt P9WFT3, whole entry: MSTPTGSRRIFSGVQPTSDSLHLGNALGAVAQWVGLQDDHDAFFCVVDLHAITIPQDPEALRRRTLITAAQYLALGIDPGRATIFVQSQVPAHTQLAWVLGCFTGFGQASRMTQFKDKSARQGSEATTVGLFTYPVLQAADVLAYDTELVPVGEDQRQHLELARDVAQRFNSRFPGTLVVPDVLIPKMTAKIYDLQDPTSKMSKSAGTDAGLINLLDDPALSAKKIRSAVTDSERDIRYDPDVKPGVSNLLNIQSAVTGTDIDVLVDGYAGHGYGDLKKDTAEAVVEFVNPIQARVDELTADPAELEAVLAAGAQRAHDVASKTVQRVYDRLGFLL

The values are deposited in ChEMBL (CHEMBL3988442, “University of Dundee, Small-Polar-MMV Screening Library” (2021)).

A: 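Enzyme assay of histidyl-tRNA synthetase; the read-out is not stated. Target: Histidine-tRNA ligase, Leishmania infantum (UniProt A4I591). Compounds at 30 µM. Higher reads as stronger inhibition (inferred: compounds with an IC50 in retests scored well above the rest). The assay is labelled LdHisRS but filed under L. infantum. Of about 69,000 compounds tested this way, about 410 (0.6%) reached 50% or more in at least one test.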
B: 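Enzyme assay of tryptophanyl-tRNA synthetase; the read-out is not stated. Target: Tryptophan-tRNA ligase, Mycobacterium tuberculosis (UniProt P9WFT3). Tested at 10 µM. Higher most likely means stronger inhibition; the record gives no direction and few retests gave an IC50. Of about 65,000 compounds tested this way, about 64 (0.098%) reached 50% or more in at least one test.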

Results are given as percent effect.
The record does not define 0% and 100%; most values in the screen are far below 50% and negative numbers occur (in some assays of this library far below -100).
The compounds are a random part of those screened.

For Cc1ccc(CN(C(=O)C(C)S(C)(=O)=O)C2CC2)cc1C (stereo not shown) the result was A: 25.71%; B: 1.135%.
For CN1CCCC(Cc2cncc(Br)c2)CC1 (stereo not shown) the result was A: 38.89%; B: -0.7525%.
For CN(Cc1cc(C(C)(C)C)n[nH]1)Cc1c[nH]nc1-c1ccc(F)cc1 the result was A: 8%; B: -3.385%.
For COc1ccccc1C1Cn2c(C)cnc2CN1Cc1c[nH]nc1C (stereo not shown) the result was A: 9.929%; B: -2.108%.
For CSc1ccc(C(=O)C2CCCN(C(=O)CCn3cncn3)C2)cc1 (stereo not shown) the result was A: 5.882%; B: 2.422%.
For Cn1c(N)nnc1SC1CCCN(c2ccccc2F)C1=O (stereo not shown) the result was A: 9.859%; B: -1.514%.
For Cc1nnc(NCCC(=O)NCc2ccccc2)c(C#N)c1C the result was A: 31.53%; B: 9.307%.
For Cc1nn(C)c(N2CCOCC2)c1CNCc1nccs1 the result was A: 23.2%; B: 0.4717%.
For Cc1csc(C(C)(C)NCC(=O)N2CCCC(C(N)=O)C2)n1 (stereo not shown) the result was A: 6.806%; B: -1.252%.
For CC(=O)NCC(=O)NCC1(O)CCN(c2cnccn2)C1 (stereo not shown) the result was A: 10.07%; B: 11.59%.
For CN(C(=O)Nc1cccc(C#N)c1)C1CCN(c2ccccn2)CC1 the result was A: 21.05%; B: -9.806%.
For COCc1nc(N(C)CCSc2ccccc2)c2cnn(C)c2n1 the result was A: 5%; B: -3.99%.
For Cc1ccc(CC(=O)N2CCCC(c3n[nH]c4nccnc34)C2)cc1 (stereo not shown) the result was A: 19.79%.
For COCCC(=O)N1CCCC1c1nccc(C)n1 (stereo not shown) the result was A: 14%.
For COc1ccc(OCC(=O)NC(C)c2ccccc2)c(C(=O)O)c1 (stereo not shown) the result was A: 7.547%; B: 0.6706%.
For CCNC(=O)Cn1ncc(N(C)CCc2ccccc2)cc1=O the result was A: -5.376%; B: 2.113%.
For CN1C(=O)CO[C@H](c2ccc(NC(=O)c3cccnc3)cc2)[C@H]1CO the result was A: 12.16%; B: -6.449%.
For CCc1noc(C)c1C(=O)N1CCCC1c1c(C)nn(C)c1C (stereo not shown) the result was A: 3.39%; B: 4.355%.
For Cc1cccc(CN2C(=O)C[C@@H]3[C@@H]2CCN3Cc2ccsc2)n1 the result was A: 19.27%; B: -2.488%.
For COCc1nc(C(=O)N2CCCC2c2cccs2)cs1 (stereo not shown) the result was A: 9.565%; B: -6.134%.
For CC(C)CNC(=O)c1cc(C2CC2)nc2c1c(C1CCCN1)nn2C (stereo not shown) the result was A: 17.93%; B: 4.408%.
For O=C(c1ccco1)N1Cc2cnn(CC3CC3)c2C(COCC2CC2)C1 (stereo not shown) the result was A: 1.887%.
For Cc1nnc(NC(=O)c2c3c(nn2C2CCS(=O)(=O)C2)CCC3)s1 (stereo not shown) the result was A: 25.33%; B: -4.379%.
For Cn1c2c(c(=O)n1C)CN(C(=O)c1cnccn1)CCC2 the result was A: 9.901%.
For CCn1nnnc1-c1cccc(NC(=O)CCOC(C)C)c1 the result was A: 5.479%; B: -2.579%.
For CN(CC(=O)NCC(F)(F)F)C(=O)c1ccc(C(=O)OC(C)(C)C)cc1 the result was A: 20.21%; B: 0.129%.

The first 2 entries again:

With Cc1ccc(CN(C(=O)C(C)S(C)(=O)=O)C2CC2)cc1C (stereo not shown) the screen gave A: 25.71%; B: 1.135%.
With CN1CCCC(Cc2cncc(Br)c2)CC1 (stereo not shown) the screen gave A: 38.89%; B: -0.7525%.